# The other results are listed elsewhere or left out.
# Columns and labels:
# Assay in all cases: glycan array binding signal (z-score within array); higher = stronger binding
# Details in all cases: glycan notation: IUPAC condensed, linker removed
# [1] = target: Neu5Ac(a2-3)Gal(b1-4)[Fuc(a1-3)]GlcNAc(b1-2)Man
# In short: (§1)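 From the Consortium for Functional Glycomics database, 3228 arrays were curated, keeping only those whose protein sequence was available. Binding is given as a within-array Z-score averaged across arrays sharing a protein sequence and across linkers. Negative Z-scores can be read as non-binding.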
# [2] = target: Neu5Ac(a2-3)Gal(b1-4)[Fuc(a1-3)]GlcNAc(b1-3)Gal
# In short: as §1
# [3] = target: Neu5Ac(a2-3)Gal(b1-4)[Fuc(a1-3)]GlcNAc(b1-3)Gal(b1-4)GlcNAc
# In short: as §1
# [4] = target: Neu5Ac(a2-3)Gal(b1-4)[Fuc(a1-3)]GlcNAc(b1-3)Gal(b1-4)[Fuc(a1-3)]GlcNAc(b1-3)Gal(b1-4)[Fuc(a1-3)]GlcNAc
# In short: as §1
# [5] = target: Neu5Ac(a2-3)Gal(b1-4)[Fuc(a1-3)]GlcNAc(b1-3)GalNAc
# In short: as §1
# [6] = target: Neu5Ac(a2-3)Gal(b1-4)[Fuc(a1-3)]GlcNAc(b1-6)[Gal(b1-3)]GalNAc
# In short: as §1
# [7] = target: Neu5Ac(a2-3)Gal(b1-4)[Fuc(a1-3)]GlcNAc(b1-6)[Neu5Ac(a2-3)Gal(b1-3)]GalNAc
# In short: as §1
# [8] = target: Neu5Ac(a2-3)Gal(b1-4)[Fuc(a1-3)]GlcNAc6S
# In short: as §1
# [9] = target: Neu5Ac(a2-3)Gal6S(b1-4)GlcNAc
# In short: as §1
# [10] = target: Neu5Ac(a2-3)Gal6S(b1-4)[Fuc(a1-3)]GlcNAc
# In short: as §1
# [11] = target: Neu5Ac(a2-3)GalNAc
# In short: as §1
# [12] = target: Neu5Ac(a2-3)GalNAc(b1-4)GlcNAc
# In short: as §1
# [13] = target: Neu5Ac(a2-3)[GalNAc(b1-4)]Gal(b1-4)Glc
# In short: as §1
# [14] = target: Neu5Ac(a2-3)[GalNAc(b1-4)]Gal(b1-4)GlcNAc
# In short: as §1
# [15] = target: Neu5Ac(a2-3)[GalNAc(b1-4)]Gal(b1-4)GlcNAc(b1-3)GalNAc
# In short: as §1
# [16] = target: Neu5Ac(a2-3)[Neu5Ac(a2-6)]GalNAc
# In short: as §1
# [17] = target: Neu5Ac(a2-6)Gal
# In short: as §1
# [18] = target: Neu5Ac(a2-6)Gal(b1-3)GlcNAc(b1-3)[Gal(b1-4)GlcNAc(b1-6)]Gal(b1-4)Glc
# In short: as §1
# [19] = target: Neu5Ac(a2-6)Gal(b1-4)Glc
# In short: as §1
# [20] = target: Neu5Ac(a2-6)Gal(b1-4)GlcNAc
# In short: as §1
# [21] = target: Neu5Ac(a2-6)Gal(b1-4)GlcNAc(b1-2)Man
# In short: as §1
# [22] = target: Neu5Ac(a2-6)Gal(b1-4)GlcNAc(b1-2)Man(a1-3)Man(b1-4)GlcNAc(b1-4)GlcNAc
# In short: as §1
# [23] = target: Neu5Ac(a2-6)Gal(b1-4)GlcNAc(b1-2)Man(a1-3)[Gal(b1-4)GlcNAc(b1-2)Man(a1-6)]Man(b1-4)GlcNAc(b1-4)GlcNAc
# In short: as §1
# [24] = target: Neu5Ac(a2-6)Gal(b1-4)GlcNAc(b1-2)Man(a1-3)[GlcNAc(b1-2)Man(a1-6)]Man(b1-4)GlcNAc(b1-4)GlcNAc
# In short: as §1
# [25] = target: Neu5Ac(a2-6)Gal(b1-4)GlcNAc(b1-2)Man(a1-3)[GlcNAc(b1-2)Man(b1-4)GlcNAc(b1-2)Man(a1-6)]Man(b1-4)GlcNAc(b1-4)GlcNAc
# In short: as §1
# [26] = target: Neu5Ac(a2-6)Gal(b1-4)GlcNAc(b1-2)Man(a1-3)[GlcNAc(b1-4)][Neu5Ac(a2-6)Gal(b1-4)GlcNAc(b1-2)Man(a1-6)]Man(b1-4)GlcNAc(b1-4)GlcNAc
# In short: as §1
# [27] = target: Neu5Ac(a2-6)Gal(b1-4)GlcNAc(b1-2)Man(a1-3)[Man(a1-6)]Man(b1-4)GlcNAc(b1-4)GlcNAc
# In short: as §1
# [28] = target: Neu5Ac(a2-6)Gal(b1-4)GlcNAc(b1-2)Man(a1-3)[Neu5Ac(a2-3)Gal(b1-4)GlcNAc(b1-2)Man(a1-6)]Man(b1-4)GlcNAc(b1-4)GlcNAc
# In short: as §1
# [29] = target: Neu5Ac(a2-6)Gal(b1-4)GlcNAc(b1-2)Man(a1-3)[Neu5Ac(a2-6)Gal(b1-4)GlcNAc(b1-2)Man(a1-6)]Man(b1-4)GlcNAc(b1-4)GlcNAc
# In short: as §1
binder,measurement,setting,value
"LlpA1 (Pseudomonas fluorescens), Q4KHC3 (protein) MGSSHHHHHHSSGLVPRGSHMAWIRYDFTDNGSSVLPARYYMAPNQYLQSPNKRFKLLFQADGNLALYDGAQLAWVADQNTPFTNVSKGNKKDPMMVFMNYGFVLDDPLRGRIWSTTPSDPTMGSREDASLRAFTQVQDDGNIVTVDTIPHWYAPNGRVFTPAVGAAMIIGGTTELVPGQFYSAGEHSLVFQGDGNLVVYGPNSSVIWATYTQNKGGVRCVMQEDGNLVIYAANNGVVWQSGTGGHPGATIRLQANGSFTIVTERPVWARFGYTPTIKPPRVFYPDHKWKTGSYTWNNVF",glycan array binding signal (z-score),[1],-0.25
same,glycan array binding signal (z-score),[2],-0.646
same,glycan array binding signal (z-score),[3],-0.021
same,glycan array binding signal (z-score),[4],0.285
same,glycan array binding signal (z-score),[5],0.206
same,glycan array binding signal (z-score),[6],0.034
same,glycan array binding signal (z-score),[7],2.08
same,glycan array binding signal (z-score),[8],0.043
same,glycan array binding signal (z-score),[9],0.343
same,glycan array binding signal (z-score),[10],-0.706
same,glycan array binding signal (z-score),[11],-0.179
same,glycan array binding signal (z-score),[12],-0.283
same,glycan array binding signal (z-score),[13],-0.67
same,glycan array binding signal (z-score),[14],-0.711
same,glycan array binding signal (z-score),[15],-0.576
same,glycan array binding signal (z-score),[16],-0.786
same,glycan array binding signal (z-score),[17],-0.771
same,glycan array binding signal (z-score),[18],-0.201
same,glycan array binding signal (z-score),[19],0.584
same,glycan array binding signal (z-score),[20],-0.374
same,glycan array binding signal (z-score),[21],-0.802
same,glycan array binding signal (z-score),[22],-0.561
same,glycan array binding signal (z-score),[23],0.164
same,glycan array binding signal (z-score),[24],-0.477
same,glycan array binding signal (z-score),[25],2.45
same,glycan array binding signal (z-score),[26],-0.209
same,glycan array binding signal (z-score),[27],0.498
same,glycan array binding signal (z-score),[28],-0.556
same,glycan array binding signal (z-score),[29],-0.374

# 2 successive entries out of the list so far, for reference:
binder,measurement,setting,value
"LlpA1 (Pseudomonas fluorescens), Q4KHC3 (protein) MGSSHHHHHHSSGLVPRGSHMAWIRYDFTDNGSSVLPARYYMAPNQYLQSPNKRFKLLFQADGNLALYDGAQLAWVADQNTPFTNVSKGNKKDPMMVFMNYGFVLDDPLRGRIWSTTPSDPTMGSREDASLRAFTQVQDDGNIVTVDTIPHWYAPNGRVFTPAVGAAMIIGGTTELVPGQFYSAGEHSLVFQGDGNLVVYGPNSSVIWATYTQNKGGVRCVMQEDGNLVIYAANNGVVWQSGTGGHPGATIRLQANGSFTIVTERPVWARFGYTPTIKPPRVFYPDHKWKTGSYTWNNVF",glycan array binding signal (z-score),[9],0.343
same,glycan array binding signal (z-score),[10],-0.706

# — the supplement of paper PMC8728848
